Article PMC9278077
These are yes or no findings as the source states them, for the method shown. In cells and extracts the contact can be indirect. Here binding means that the protein was enriched with, or labelled near, the bait; the list need not be complete.

Protein sequences, listed by entry. Tags and fused reporters are not part of them.
UniProt Q5TKR9: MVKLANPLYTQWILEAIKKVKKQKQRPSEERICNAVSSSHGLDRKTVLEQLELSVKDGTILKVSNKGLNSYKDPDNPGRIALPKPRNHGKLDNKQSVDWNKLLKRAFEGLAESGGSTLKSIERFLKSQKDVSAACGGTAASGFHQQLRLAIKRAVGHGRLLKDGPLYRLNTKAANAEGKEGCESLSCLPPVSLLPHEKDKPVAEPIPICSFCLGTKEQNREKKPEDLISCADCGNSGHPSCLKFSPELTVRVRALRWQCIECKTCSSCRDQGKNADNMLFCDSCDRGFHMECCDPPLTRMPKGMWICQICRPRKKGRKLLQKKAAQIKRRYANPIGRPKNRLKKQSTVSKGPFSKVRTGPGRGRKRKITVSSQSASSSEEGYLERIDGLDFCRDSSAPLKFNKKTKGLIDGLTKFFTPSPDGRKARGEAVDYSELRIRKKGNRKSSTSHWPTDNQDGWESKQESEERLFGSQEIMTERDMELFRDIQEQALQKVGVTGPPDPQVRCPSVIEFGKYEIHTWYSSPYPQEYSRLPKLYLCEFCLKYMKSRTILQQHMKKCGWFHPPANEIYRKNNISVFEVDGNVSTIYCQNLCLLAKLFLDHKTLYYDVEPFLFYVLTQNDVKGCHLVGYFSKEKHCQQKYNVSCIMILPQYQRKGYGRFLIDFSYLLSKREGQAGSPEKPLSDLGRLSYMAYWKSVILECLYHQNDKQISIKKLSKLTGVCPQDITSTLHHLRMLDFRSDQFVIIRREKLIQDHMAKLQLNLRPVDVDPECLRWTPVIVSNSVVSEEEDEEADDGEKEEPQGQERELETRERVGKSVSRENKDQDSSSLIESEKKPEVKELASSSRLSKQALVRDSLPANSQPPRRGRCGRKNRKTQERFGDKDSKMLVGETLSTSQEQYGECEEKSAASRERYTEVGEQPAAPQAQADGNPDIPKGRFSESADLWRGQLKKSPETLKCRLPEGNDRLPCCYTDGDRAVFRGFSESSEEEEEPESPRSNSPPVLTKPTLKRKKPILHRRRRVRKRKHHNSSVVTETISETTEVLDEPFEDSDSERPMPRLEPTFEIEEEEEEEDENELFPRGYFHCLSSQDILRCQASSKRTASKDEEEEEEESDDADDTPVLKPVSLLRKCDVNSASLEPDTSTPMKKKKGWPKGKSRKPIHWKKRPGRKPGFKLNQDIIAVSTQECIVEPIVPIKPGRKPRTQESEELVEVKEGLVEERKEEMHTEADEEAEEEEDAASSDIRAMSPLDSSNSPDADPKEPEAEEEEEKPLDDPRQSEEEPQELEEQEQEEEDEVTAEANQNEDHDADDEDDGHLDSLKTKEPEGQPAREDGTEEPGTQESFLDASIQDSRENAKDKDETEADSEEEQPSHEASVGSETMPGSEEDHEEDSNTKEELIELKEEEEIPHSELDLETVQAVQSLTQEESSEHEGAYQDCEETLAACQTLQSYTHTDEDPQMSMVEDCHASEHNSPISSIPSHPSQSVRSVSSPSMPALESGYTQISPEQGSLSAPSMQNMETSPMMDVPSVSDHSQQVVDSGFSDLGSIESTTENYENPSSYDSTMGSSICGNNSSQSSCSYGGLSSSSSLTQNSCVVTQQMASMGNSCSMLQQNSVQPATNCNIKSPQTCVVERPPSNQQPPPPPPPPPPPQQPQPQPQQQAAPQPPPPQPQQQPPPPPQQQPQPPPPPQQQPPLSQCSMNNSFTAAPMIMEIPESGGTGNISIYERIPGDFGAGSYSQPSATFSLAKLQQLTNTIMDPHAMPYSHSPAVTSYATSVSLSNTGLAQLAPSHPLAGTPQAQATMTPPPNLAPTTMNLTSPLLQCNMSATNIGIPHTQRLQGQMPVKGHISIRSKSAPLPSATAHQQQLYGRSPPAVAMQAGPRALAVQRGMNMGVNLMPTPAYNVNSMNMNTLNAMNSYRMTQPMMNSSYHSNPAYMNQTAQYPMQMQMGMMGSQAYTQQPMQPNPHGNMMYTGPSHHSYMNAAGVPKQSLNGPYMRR

Biological target: Dual-specificity tyrosine regulated kinase 1A (DYRK1A), endogenous in rat neonatal cardiomyocytes (rat (endogenous in neonatal cardiomyocytes)) (UniProt Q63470)
Experiment: affinity purification with mass spectrometry; DYRK1A complexes immunoprecipitated from lysates of rat neonatal cardiomyocytes in primary culture (protein A/G agarose); trypsin digest, tandem mass tag labelling, LC-MS/MS

Substance: Lysine acetyltransferase 6A (KAT6A), endogenous in rat neonatal cardiomyocytes (from UniProt Q5TKR9 1-1998)
- binding: binds
